Drawing on ChEMBL document CHEMBL6127131, “Design, Synthesis, and Biological Evaluation of New Selective PDE4 Inhibitors for Topical Treatment of Psoriasis” (J Med Chem, 2024), this text covers IC50 for 1 compound.

Chains of the proteins cited; added tags and fusions are not shown. Lines headed by an entry give the natural chain unless they say otherwise; changes in a name come on top.
UniProt Q12809: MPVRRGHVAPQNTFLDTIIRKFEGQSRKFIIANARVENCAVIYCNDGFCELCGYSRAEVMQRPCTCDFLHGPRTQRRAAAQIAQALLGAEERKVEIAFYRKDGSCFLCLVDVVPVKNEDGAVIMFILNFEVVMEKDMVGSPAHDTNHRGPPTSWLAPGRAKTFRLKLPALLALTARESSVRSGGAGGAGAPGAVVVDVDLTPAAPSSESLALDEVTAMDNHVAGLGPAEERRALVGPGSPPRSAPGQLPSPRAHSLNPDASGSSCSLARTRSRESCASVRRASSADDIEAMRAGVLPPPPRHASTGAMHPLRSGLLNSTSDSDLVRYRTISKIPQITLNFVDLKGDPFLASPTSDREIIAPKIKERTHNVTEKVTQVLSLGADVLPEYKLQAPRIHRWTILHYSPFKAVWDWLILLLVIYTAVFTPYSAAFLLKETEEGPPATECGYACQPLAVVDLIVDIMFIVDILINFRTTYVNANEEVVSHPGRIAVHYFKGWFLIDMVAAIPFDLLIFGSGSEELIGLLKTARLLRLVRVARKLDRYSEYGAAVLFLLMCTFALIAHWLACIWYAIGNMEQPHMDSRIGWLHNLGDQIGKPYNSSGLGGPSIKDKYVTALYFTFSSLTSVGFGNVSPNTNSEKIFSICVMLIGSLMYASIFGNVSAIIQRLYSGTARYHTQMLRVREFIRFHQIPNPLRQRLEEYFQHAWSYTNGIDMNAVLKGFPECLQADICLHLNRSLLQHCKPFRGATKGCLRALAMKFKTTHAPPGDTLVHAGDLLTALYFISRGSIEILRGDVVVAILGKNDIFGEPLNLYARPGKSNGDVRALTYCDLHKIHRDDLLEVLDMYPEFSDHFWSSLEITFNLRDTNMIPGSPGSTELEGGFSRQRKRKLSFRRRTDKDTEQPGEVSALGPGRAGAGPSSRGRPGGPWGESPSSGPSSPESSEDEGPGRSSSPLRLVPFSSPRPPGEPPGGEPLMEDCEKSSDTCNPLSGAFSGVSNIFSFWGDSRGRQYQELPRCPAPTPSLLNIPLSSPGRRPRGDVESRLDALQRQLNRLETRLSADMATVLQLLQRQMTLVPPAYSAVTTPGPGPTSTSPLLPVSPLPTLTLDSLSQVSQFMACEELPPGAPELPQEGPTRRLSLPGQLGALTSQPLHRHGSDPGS

Each structure is given as a SMILES string.

This test concerns the target Voltage-gated inwardly rectifying potassium channel KCNH2 (Homo sapiens, UniProt Q12809).

For orientation: IC50 means the concentration at which inhibition is half-maximal. Low readings indicate inhibition by little substance, high ones a need for much substance. Compound `O=C(NCc1ncccn1)c1csc(-c2ccc(OC(F)F)c(OCC3CC3)c2)n1` displayed an IC50 of 11.6 µM.
